{"source": "the supplement of paper PMC8846439", "note": "Structures can show the parent of a compound that is named as a salt. The list shows a part of the results. Repeats are few or missing, and single values can be far off.", "data": [{"system": "Trypanosoma brucei brucei bloodstream form L262P (kDNA-independent)", "experiment": "viability Z-score (nuclei count per well, median-polish normalised, relative to plate distribution); higher = more viable parasites (negative = growth inhibition)", "details": "4 days; compound concentration: 10 µM (some Prestwick/PKE rows may be 1 µM / not distinguished)", "values": [{"smiles": "COC(=O)[C@@H]1C(c2ccccc2)=NN(C)C1(C)C", "viability Z-score": -8.19}, {"smiles": "C/C1=C/C[C@@]2([H])C[C@]1([H])[C@@]([H])(OC2)C=4/C=[N+](/CC=3C=CC=CC=3)C=CC=4", "viability Z-score": -3.56}, {"smiles": "CCCc1ccc(C(=O)N2CCC(n3c(=O)oc4ccccc43)CC2)o1", "viability Z-score": -3.09}, {"smiles": "C#CCSc1nc(C)cc(=O)[nH]1", "viability Z-score": -2.74}, {"smiles": "O=C(CC=1[S]C=CC=1)N(/C2=C/C=CC=C2)[C@@](C)(CC)C(=O)N[C@]3([H])CCCCC3", "viability Z-score": -4.52}, {"smiles": "O/C1=C(/C=CC2=CC=CN=C12)[C@@]([H])(N/C3=N/C=CC=C3)C4=CC=C(C=C4)OCCC", "viability Z-score": -2.26}, {"smiles": "O=C3N(C)C=2N=CN(CC(=O)N/C1=C/C=C(C=C1)[S](=O)(=O)NCCCC)C=2C(=O)N3C", "viability Z-score": -4.12}, {"smiles": "O=C(NC(C)(C)C1=CC(=CC=C1)C(=C)C)N/C2=C/C=C(C=C2)C(=O)N", "viability Z-score": -4.87}, {"smiles": "CCn1cc(C(=O)O)c(=O)c2cc(-c3ccc([N+](=O)[O-])o3)c(Cl)cc21", "viability Z-score": -1.96}, {"smiles": "COc1ccc(C=C(NC(=O)c2ccccc2)C(=O)N/N=C2/C(=O)N(CC(=O)O)c3ccccc32)cc1OC", "viability Z-score": -5.62}, {"smiles": "O=C(/C2=C(\\C)NC=1CCCC(=O)C=1[C@]2([H])C3=CC([Br])=C(O)C(=C3)OCC)N4CCCCC4", "viability Z-score": -3.58}, {"smiles": "O=C(/C1=N/OC2=C1COC=3C=CC=CC2=3)N4CCN(CC4)C=5C=C(C=CC=5)C([F])([F])[F]", "viability Z-score": -4.59}, {"smiles": "O=C(N/C1=C/C=C(N=C1)O/C2=C/C=C(C=C2)C(C)(C)C)C=3C(=NOC=3C)C4=C([Cl])C=C/C=C4/[Cl]", "viability Z-score": -4.38}, {"smiles": "CCCCCCC[N+](CC)(CC)CCCCc1ccc(Cl)cc1", "note": "[Clofilium tosylate]", "viability Z-score": -3.33}, {"smiles": "O=c1[nH]c(NC2CCCCC2)c([N+](=O)[O-])c(=O)[nH]1", "viability Z-score": -5.53}, {"smiles": "O=[S](=O)(NC=1N=CC([Cl])=CC=1)C=2/C=C(/[Br])C([Cl])=NC=2", "viability Z-score": -2.23}, {"smiles": "CC1(C)S[C@@H]2[C@H](NC(=O)[C@H](N)c3ccc(O)cc3)C(=O)N2[C@H]1C(=O)O", "note": "[Amoxicillin]", "viability Z-score": -2.66}, {"smiles": "O=C(C=1C(=NOC=1C)C2=C([Cl])C=C/C=C2/[Cl])N3CCN(CC3)C=4C=CC(=CC=4[N+](=O)[O-])C([F])([F])[F]", "viability Z-score": -1.61}, {"smiles": "O=[S](=O)(NC=1N=C(N=C(C=1)OC)OC)C3=C/C=C(/NCC=2C=CC=CC=2O)C=C3", "viability Z-score": -3.39}, {"smiles": "O=C(C=3[S]C=2/N=C(/C)C(CC(=O)C=1C=CC([Br])=CC=1)=C(C)C=2C=3N)N5C=4C=CC=CC=4[S]C=6C=CC=CC5=6", "viability Z-score": -4.33}, {"smiles": "[O-][N+](=O)C1=CC=C(C=C1)C(=O)N[C@]3([H])CCN(CC(=O)N[C@]2([H])CCCC[C@]2(C)[H])CC3", "viability Z-score": -5.26}, {"smiles": "O=C(N[C@]([H])(COC/C1=C/C=CC=C1)C(=O)N[C@@]([H])(CC[S]C)C(=O)N)[C@@]2([H])CCC(=O)N2C(=O)OC/C3=C/C=CC=C3", "viability Z-score": -5.05}, {"smiles": "O=C(N/C1=N/N=C(C[S]1)C2=C/C=C(/C)C=C2)C[S]C=3/N=C(/C)C=C(C)N=3", "viability Z-score": -3.12}, {"smiles": "COC(=O)C1=C(C)NC(C)=C(C(=O)OC)C1C(=O)O", "viability Z-score": -3.04}, {"smiles": "O=C2N(/C1=C/C(=C(/C)C=C1)[N+](=O)[O-])C(=O)C[C@@]2([H])[S]CC(=O)N/C3=C/C(=CC(=C3)C([F])([F])[F])C([F])([F])[F]", "viability Z-score": -4.06}, {"smiles": "O=C(/C=C/C#Cc1cccc(NS(=O)(=O)c2ccccc2)c1)NO", "note": "[Oxamflatin]", "viability Z-score": -3.52}, {"smiles": "O=C(O)c1cc(-c2ccco2)nc2ccccc12", "viability Z-score": -4.33}, {"smiles": "O=C(Nc1ccc([N+](=O)[O-])cc1Cl)c1cc(Cl)ccc1O", "note": "[Niclosamide]", "viability Z-score": -1.86}, {"smiles": "O=C(CC=1[S]C=CC=1)N3CCC2=CC(OC)=C(C=C2[C@@]3([H])CO/C4=C/C=C(C=C4)C(=O)OC)OC", "viability Z-score": -6.07}, {"smiles": "[Cl]/C1=C/C=C(C=C1)C2=N[S]C=3C2=NC=NC=3N6CCN(CC=5C=C4OCOC4=CC=5)CC6", "viability Z-score": -6.26}, {"smiles": "O=[S](=O)(C1=C(C=NC=2C=CC([F])=CC1=2)C(=O)C3=CC=CC=C3)C4=C/C=C(/C)C=C4", "viability Z-score": -2.96}, {"smiles": "O=[S](=O)(N/C2=C(\\O)N1N=CN=C1/N=C2/C)C=4C=C3C(C)=C(OC3=CC=4)C(=O)OCC", "viability Z-score": -5.22}, {"smiles": "[O-][N+](=O)C1=CC=C(/C=C1/C)C(=O)NC=2[S]C=C(C=2C(=O)OCCC)C=3C=CC=CC=3[Cl]", "viability Z-score": -4.07}, {"smiles": "CCC(=O)c1cc(Cl)ccc1NC(=O)c1ccccc1Br", "viability Z-score": -2.67}, {"smiles": "O=C(NCC=1[S]C=CC=1)C[S]/C4=N/N=C(/CN2N=NC=3C=CC=CC2=3)N4C", "viability Z-score": -3.37}, {"smiles": "O=C(OC)C=1N=NN(C=1C[S]/C3=N/C=2C=CC=CC=2N3)C4=NO/N=C4/N", "viability Z-score": -1.94}, {"smiles": "O=C([C@@H]1CCCCN1S(=O)(=O)c1ccc(Cl)cc1)N1CCCCCC1", "viability Z-score": -1.47}, {"smiles": "Cc1onc(-c2c(F)cccc2Cl)c1C(=O)Nc1sc2c(c1C(N)=O)CCC2", "viability Z-score": -3.25}, {"smiles": "O=C(C[S]/C1=N/N=C(N1C=2C=CC([F])=CC=2)C=3C=CC(O)=CC=3)N4CCCCC4", "viability Z-score": -2.98}, {"smiles": "C#CCOC(=O)C=1OC(=CC=1)C[S]/C2=C/C=C(/[Cl])C=C2", "viability Z-score": -3.12}]}]}
